Results taken from PMC7969954, “Pol α-primase dependent nuclear localization of the mammalian CST complex” (Communications Biology, 2021).
Residue numbers refer to the chain shown, from its start. These are yes or no findings as the source states them, for the method shown. For some assays here: Binding seen in cells or lysates may run through a third protein. Some results given as binding are weak or reduced against the parent protein; the word gives no strength. Each block holds one molecule with its values, some of them ahead of it.

By UniProt entry, the sequences of proteins in these tests, tags left out.
UniProt P09884: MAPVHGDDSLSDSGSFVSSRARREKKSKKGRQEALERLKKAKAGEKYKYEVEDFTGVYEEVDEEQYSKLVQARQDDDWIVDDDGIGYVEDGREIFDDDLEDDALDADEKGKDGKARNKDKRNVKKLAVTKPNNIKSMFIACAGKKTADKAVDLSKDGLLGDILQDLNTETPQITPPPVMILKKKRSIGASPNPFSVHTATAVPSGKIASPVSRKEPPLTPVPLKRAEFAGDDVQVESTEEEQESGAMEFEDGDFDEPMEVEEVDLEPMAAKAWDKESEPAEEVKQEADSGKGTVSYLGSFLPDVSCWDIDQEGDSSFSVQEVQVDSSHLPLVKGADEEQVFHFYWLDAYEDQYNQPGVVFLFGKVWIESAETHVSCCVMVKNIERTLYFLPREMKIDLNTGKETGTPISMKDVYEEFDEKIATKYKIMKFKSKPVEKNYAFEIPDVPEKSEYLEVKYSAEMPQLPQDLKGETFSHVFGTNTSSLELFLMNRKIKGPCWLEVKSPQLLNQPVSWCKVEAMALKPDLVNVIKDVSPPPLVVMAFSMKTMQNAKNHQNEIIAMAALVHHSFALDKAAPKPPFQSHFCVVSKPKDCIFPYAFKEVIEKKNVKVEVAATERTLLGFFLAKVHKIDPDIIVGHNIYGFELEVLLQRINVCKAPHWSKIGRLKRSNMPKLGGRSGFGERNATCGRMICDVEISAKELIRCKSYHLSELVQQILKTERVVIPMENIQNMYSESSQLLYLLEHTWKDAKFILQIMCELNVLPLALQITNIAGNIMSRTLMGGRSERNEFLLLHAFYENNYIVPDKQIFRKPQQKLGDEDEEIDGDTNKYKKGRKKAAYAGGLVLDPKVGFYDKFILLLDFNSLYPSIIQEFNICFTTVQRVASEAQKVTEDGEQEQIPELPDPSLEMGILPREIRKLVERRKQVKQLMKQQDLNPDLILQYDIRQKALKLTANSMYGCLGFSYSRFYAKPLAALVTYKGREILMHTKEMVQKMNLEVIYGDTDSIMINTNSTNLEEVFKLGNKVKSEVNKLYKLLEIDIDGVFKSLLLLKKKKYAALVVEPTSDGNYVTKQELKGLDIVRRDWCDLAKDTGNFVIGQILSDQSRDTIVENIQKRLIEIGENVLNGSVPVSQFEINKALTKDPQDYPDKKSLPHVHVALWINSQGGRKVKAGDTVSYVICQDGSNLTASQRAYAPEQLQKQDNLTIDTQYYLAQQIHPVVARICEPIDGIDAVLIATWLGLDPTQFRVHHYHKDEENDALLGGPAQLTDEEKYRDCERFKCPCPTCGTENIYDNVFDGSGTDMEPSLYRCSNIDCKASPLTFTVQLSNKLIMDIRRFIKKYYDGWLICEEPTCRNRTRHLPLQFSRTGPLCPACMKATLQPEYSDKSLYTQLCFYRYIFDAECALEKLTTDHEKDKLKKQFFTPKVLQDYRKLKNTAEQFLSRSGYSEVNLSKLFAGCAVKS
UniProt P04406: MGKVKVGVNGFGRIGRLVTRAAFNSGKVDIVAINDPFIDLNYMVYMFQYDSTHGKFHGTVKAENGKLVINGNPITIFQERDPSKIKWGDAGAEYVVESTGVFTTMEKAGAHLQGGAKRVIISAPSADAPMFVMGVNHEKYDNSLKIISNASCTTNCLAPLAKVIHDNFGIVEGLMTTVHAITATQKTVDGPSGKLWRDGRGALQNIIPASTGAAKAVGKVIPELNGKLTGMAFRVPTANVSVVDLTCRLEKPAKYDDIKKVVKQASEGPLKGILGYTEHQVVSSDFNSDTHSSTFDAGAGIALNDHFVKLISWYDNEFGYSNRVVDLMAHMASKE

Legend:
[1] = target: T1, mCherry-CTC1 K240A (human) (UniProt Q2NKJ3); assay: co-IP; magnetic RFP-Trap (mCherry-Trap) beads on lysates of 8 x 10^6 HEK293T cells expressing mCherry-CTC1; IPs blotted for endogenous proteins; mock co-IPs with WT HEK293T cells
T1 sequence: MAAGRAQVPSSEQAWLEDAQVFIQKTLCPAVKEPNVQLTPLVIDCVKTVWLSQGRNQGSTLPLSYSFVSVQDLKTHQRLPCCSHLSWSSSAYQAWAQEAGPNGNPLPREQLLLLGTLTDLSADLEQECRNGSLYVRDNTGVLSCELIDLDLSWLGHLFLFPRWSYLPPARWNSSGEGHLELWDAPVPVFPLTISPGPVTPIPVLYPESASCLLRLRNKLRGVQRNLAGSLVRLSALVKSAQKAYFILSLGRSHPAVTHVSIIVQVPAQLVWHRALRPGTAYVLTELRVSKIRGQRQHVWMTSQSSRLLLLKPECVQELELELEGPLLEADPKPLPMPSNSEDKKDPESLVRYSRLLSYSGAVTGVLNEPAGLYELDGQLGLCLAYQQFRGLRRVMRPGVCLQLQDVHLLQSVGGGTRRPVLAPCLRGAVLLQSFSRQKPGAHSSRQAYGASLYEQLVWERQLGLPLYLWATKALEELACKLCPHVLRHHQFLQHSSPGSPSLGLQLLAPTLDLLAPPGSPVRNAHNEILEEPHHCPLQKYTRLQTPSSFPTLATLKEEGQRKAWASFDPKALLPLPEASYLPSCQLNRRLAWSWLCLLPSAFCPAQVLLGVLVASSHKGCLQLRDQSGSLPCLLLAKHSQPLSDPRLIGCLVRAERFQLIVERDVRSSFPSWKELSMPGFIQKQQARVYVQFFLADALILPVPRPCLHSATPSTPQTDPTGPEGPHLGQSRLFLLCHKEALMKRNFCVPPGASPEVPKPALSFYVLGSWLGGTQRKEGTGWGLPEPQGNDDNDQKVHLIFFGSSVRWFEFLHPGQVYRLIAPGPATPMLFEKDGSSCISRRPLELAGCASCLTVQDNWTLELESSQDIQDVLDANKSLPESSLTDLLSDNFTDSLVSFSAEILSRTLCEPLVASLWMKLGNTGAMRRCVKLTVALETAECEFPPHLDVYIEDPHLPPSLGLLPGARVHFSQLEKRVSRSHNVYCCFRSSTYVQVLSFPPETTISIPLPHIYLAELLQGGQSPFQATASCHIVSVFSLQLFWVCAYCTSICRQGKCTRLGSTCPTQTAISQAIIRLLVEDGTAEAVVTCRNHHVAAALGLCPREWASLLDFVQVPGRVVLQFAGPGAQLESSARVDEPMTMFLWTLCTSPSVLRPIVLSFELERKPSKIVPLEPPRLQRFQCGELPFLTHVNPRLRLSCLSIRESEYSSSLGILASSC

[2] = target: T2, mCherry-CTC1 K242A (human) (UniProt Q2NKJ3); assay: as above
T2 sequence: T1 sequence with A240K, K242A

[3] = target: T3, mCherry-CTC1 wild type (plasmid construct) (human) (UniProt Q2NKJ3); assay: as above
T3 sequence: T1 sequence with A240K

[4] = target: T4, mCherry-CTC1 (CRISPR Cas9 knock-in at the endogenous CTC1 gene) (human (endogenous in HEK293T)) (UniProt Q2NKJ3); assay: as above
T4 sequence: T1 sequence with A240K

[5] = target: T4, mCherry-CTC1 (CRISPR Cas9 knock-in at the endogenous CTC1 gene) (human (endogenous in HEK293T)); assay: co-IP; RFP-beads incubated with nuclear and cytoplasmic extracts of fractionated HEK293T cells; blotted for PolA1
[6] = target: T5, full length STN1 (recombinant) (human) (UniProt Q9H668); assay: co-purification; STN1 and TEN1 E. coli cells lysed together by sonication and purified as a complex over Ni-NTA, amylose, HS and HQ columns
T5 sequence: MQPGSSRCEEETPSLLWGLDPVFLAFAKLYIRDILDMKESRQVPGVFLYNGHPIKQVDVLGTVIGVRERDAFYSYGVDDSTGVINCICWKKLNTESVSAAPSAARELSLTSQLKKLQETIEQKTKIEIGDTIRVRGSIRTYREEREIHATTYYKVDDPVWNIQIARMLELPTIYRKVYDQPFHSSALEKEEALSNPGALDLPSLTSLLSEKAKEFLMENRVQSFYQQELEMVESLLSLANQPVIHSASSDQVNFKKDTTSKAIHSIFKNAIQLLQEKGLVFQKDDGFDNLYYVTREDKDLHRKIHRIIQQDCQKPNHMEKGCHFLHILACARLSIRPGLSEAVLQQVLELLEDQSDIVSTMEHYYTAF

binding [1]: binds | binding [2]: binds | binding [3]: binds | binding [4]: binds | binding [5]: binds
Molecule: PolA1 (catalytic subunit of DNA polymerase alpha primase), endogenous (from UniProt P09884 1-1462)

binding [4]: no binding
Molecule: GAPDH, endogenous (from UniProt P04406 1-335)

binding [4]: binds
B1: STN1, endogenous (protein, UniProt Q9H668 1-368)
chain: T5 sequence

binding [6]: binds
B2: full length TEN1 (recombinant) (protein, UniProt Q86WV5 1-123)
chain: MMLPKPGTYYLPWEVSAGQVPDGSTLRTFGRLCLYDMIQSRVTLMAQHGSDQHQVLVCTKLVEPFHAQVGSLYIVLGELQHQQDRGSVVKARVLTCVEGMNLPLLEQAIREQRLYKQERGGSQ
